Experimental data reported in patent US20240376225A1 (CHILDREN S MEDICAL CENTER, published 2024).
These are yes or no findings as the source states them, for the method shown. Some results given as binding are weak or reduced against the parent protein; the word gives no strength.

Key:
[1] = molecular target: cyno CD21 on CHO cells (cynomolgus monkey); assay: flow cytometry, CHO cells overexpressing cyno CD21
[2] = molecular target: cyno CD21 on CHO cells (cynomolgus monkey); assay: flow cytometry, CHO cells over-expressing cyno CD21
[3] = molecular target: purified cynomolgus CD21 ECD protein (cynomolgus monkey); assay: ELISA on coated CD21 ECD protein
[4] = molecular target: purified cynomolgus CD21 ECD protein (cynomolgus monkey); assay: ELISA on coated purified cynomolgus CD21 ECD, Ab15 at 1 ug/ml, detection with goat anti-human IgG Fc-HRP, OD450
[5] = molecular target: cyno CD21 on CHO cells (cynomolgus monkey); assay: flow cytometry, Ab15 titrated on CHO cells overexpressing cyno CD21, anti-human IgG-PE, Geo MFI
[6] = molecular target: cyno CD21 on CHO cells (cynomolgus monkey); assay: flow cytometry blocking assay on CHO-cyno CD21 cells: Ab15 titrated, then biotinylated human C3d (4.5 ug/ml) detected with streptavidin conjugate; blocked ligand human C3d

Measured: binding

B1: Ab15 (antibody, human IgG1, kappa, V domains shown)
VH: QVQLVQSGAEVKKPGSSVKVSCKASGGTFSSYAISWVRQAPGQGLEWMGRIIPILGIANYAQKFQGRVTITADKSTSTAYMELSSLRSEDTAVYYCAREDDSSGYYQDWGQGTLVTVSS
VL: EIVMTQSPATLSLSPGESATLSCRAGQSINSHLAWYQQKPGQSPSLLIYDASTRATGVPARFSGSGFGTEFTLTISSLQSEDFAVYFCQQYEYWYTFGQGTKLEIKR
notes: Tb-labeled in the HTRF assay; also called 36C01; SC38-36C01 (IgG1 version)
binds: all assays above
